Results reported in PMC5675595.

Chains of the proteins cited; added tags and fusions are not shown.
UniProt Q92973: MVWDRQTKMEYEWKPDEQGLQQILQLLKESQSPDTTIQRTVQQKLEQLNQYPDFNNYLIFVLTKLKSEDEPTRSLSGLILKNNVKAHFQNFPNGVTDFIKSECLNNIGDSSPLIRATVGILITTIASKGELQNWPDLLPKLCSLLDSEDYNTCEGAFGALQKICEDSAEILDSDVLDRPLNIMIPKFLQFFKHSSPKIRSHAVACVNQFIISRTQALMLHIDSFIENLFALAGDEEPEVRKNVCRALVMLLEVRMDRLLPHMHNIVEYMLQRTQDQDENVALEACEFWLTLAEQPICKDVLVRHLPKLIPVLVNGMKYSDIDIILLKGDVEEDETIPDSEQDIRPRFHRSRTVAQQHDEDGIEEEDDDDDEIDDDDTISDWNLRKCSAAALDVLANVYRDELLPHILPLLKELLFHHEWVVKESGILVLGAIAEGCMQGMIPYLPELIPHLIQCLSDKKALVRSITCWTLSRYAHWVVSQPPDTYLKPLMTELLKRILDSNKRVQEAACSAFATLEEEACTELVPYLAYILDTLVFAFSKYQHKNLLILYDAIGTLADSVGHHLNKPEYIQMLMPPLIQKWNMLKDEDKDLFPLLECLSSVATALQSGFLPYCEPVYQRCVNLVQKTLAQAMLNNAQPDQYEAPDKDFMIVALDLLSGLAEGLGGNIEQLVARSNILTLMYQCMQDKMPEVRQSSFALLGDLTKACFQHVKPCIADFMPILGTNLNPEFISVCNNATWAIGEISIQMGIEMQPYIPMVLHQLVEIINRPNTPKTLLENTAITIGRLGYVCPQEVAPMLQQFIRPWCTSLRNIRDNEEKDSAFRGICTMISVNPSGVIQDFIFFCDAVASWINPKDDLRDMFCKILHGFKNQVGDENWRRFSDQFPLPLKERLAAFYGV

Target: T1, HA-tagged IRAK2 (UniProt Q8CFA1)
T1 sequence: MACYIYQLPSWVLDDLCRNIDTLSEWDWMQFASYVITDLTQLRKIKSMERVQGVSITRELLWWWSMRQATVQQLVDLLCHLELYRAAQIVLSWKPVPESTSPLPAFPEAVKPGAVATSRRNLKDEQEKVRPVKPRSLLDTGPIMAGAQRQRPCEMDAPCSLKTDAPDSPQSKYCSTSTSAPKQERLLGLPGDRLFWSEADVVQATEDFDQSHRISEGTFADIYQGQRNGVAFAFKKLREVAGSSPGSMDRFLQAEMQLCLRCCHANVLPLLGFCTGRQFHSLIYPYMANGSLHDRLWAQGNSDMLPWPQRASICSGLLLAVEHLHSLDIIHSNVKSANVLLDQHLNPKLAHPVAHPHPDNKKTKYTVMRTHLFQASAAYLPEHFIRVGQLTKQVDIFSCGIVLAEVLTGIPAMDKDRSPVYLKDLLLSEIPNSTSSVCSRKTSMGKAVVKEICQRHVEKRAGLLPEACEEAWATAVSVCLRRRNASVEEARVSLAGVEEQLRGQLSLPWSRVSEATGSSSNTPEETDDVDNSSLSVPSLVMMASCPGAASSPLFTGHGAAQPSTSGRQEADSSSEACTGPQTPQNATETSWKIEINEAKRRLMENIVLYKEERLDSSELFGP
Experiment: affinity purification with mass spectrometry; IL1R-293 cells transiently transfected with HA-tagged IRAK2 and treated by IL-1; anti-HA immunoprecipitation; mass spectrometry of the precipitate

binding: binds
Substance: Importin-β-2 (from UniProt Q92973 1-898)

Results are given in words; binding and its absence hold for the method and conditions named. In cells and extracts the contact can be indirect. These calls come from enrichment with a bait or labelling near it, and not all partners need be listed. Sequences can lack the tags named with a protein.
